# Patent US20220195057A1 (LANOVA MEDICINES, published 2022)
# By UniProt entry, the sequences of proteins in these tests, tags left out.
# UniProt P51685: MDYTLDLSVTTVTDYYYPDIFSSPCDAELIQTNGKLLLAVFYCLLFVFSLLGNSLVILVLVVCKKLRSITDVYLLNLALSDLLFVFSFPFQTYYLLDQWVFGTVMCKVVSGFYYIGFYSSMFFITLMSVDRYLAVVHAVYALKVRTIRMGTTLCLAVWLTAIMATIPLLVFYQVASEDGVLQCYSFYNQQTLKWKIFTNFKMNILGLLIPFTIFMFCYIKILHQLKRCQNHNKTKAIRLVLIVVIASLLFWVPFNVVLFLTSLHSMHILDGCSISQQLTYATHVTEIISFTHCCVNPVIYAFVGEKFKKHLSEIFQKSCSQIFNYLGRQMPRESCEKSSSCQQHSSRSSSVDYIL
# Positions count from the first letter of the chain named. These are yes or no findings as the source states them, for the method shown. Some results given as binding are weak or reduced against the parent protein; the word gives no strength.
# B1: 88-H2L2 (antibody, V domains shown)
# VH: EVQLVESGGGLVQPGGSLKLSCAASGFTFNPNAMNWVRQASGKGLEWVGRIRSKSNNYATYYADSVKDRFTISRDDSKNTAYLQMNNLKTEDTAVYYCVRGKDDGYRHYAMDYWGQGTTVTVSS
# VL: DIVMTQSPLSLPVTPGEPASISCRSSKSLLHSNANTYLYWFLQKPGQSPQLLIYRMSNLASGVPDRFSGSGSGTAFTLKISRVEAEDVGVYYCMQHLEYPFTFGGGTKVEIK
# notes: Humanized 88D2C6
# B2: 88-H1L2 (antibody, V domains shown)
# VH: B1 VH with N87S, V99T
# VL: B1 VL
# notes: Humanized 88D2C6
# B3: 88-H1L3 (antibody, V domains shown)
# VH: B1 VH with N87S, V99T
# VL: B1 VL with S7A, A19V, V109L
# notes: Humanized 88D2C6
# B4: 88-H3L2 (antibody, V domains shown)
# VH: B1 VH with G49A, A81L
# VL: B1 VL
# notes: Humanized 88D2C6
# B5: 88-H3L3 (antibody, V domains shown)
# VH: B1 VH with G49A, A81L
# VL: B1 VL with S7A, A19V, V109L
# notes: Humanized 88D2C6
# B6: 88-H2L3 (antibody, V domains shown)
# VH: B1 VH
# VL: B1 VL with S7A, A19V, V109L
# notes: Humanized 88D2C6
# B7: 88-xi (antibody, V domains shown)
# VH: B1 VH with S7T, G15K, S41P, G49A, K78Q, N79S, T80M, A81L, V95M, T119S
# VL: DIVMTQAAPSVPVTPGESVSISCRSSKSLLHSNGNTYLYWFLQRPGQSPQLLIYRMSNLASGVPDRFSGSGSGTAFTLRISRVEAEDVGVYYCMQHLEYPFTFGAGTKLELK
# notes: also called 88D2C6; chimeric 88D2C6
# B8: 137-xi (antibody, V domains shown)
# VH: EVQLVESGGGLVQPKGSLKLSCTASGFTFNTYAMNWVRQAPGKGLEWVARIRSKANNYATYYADSVKDRFTISRDDSQRILYLQMNNLKAEDTAMYYCVRDRSRGEDYAMDYWGQGTSVTVSS
# VL: B7 VL
# notes: also called 137D1H10; chimeric 137D1H10
# B9: 137-H2L2 (antibody, V domains shown)
# VH: EVQLVESGGGLVQPGGSLKLSCAASGFTFNTYAMNWVRQASGKGLEWVGRIRSKANNYATYYADSVKDRFTISRDDSKNTAYLQMNNLKTEDTAVYYCVRDRSRGEDYAMDYWGQGTLVTVSS
# VL: B1 VL with G105Q, V109L
# notes: Humanized 137D1H10
# B10: 137-H3L3 (antibody, V domains shown)
# VH: B9 VH with G49A, A81L
# VL: B1 VL with A19V, G105Q, V109L
# notes: Humanized 137D1H10
# B11: 137-H2L3 (antibody, V domains shown)
# VH: B9 VH
# VL: B1 VL with A19V, G105Q, V109L
# notes: Humanized 137D1H10
# Target: human chemokine (C-C motif) receptor 8 (CCR8) protein (human) (UniProt P51685)
# Assay: cell binding, CCR8-expressing cells (FIG. 3)
row,binding,Binder
1,binds,B1
2,binds,B2
3,binds,B3
4,binds,B4
5,binds,B5
6,binds,B6

# Target: human chemokine (C-C motif) receptor 8 (CCR8) protein (human) (UniProt P51685)
# Assay: cell binding, U2OS cells expressing human CCR8, chimeric antibodies
row,binding,Binder
1,binds,B7
2,binds,B8

# Target: human chemokine (C-C motif) receptor 8 (CCR8) protein (human) (UniProt P51685)
# Assay: cell binding, CCR8-expressing cells
row,binding,Binder
1,binds,B1
2,binds,B2
3,binds,B3
4,binds,B4
5,binds,B5
6,binds,B6

# Target: human chemokine (C-C motif) receptor 8 (CCR8) protein (human) (UniProt P51685)
# Assay: cell binding, CCR8-expressing cells (FIG. 4)
row,binding,Binder
1,binds,B9
2,binds,B10
3,binds,B11
